These results are taken from PubChem BioAssay AID330 (DTP/NCI, 2004).

The list does not hold the whole screen: it is rich in T/C values a quarter to a half above the control, in often repeated tests (any T/C) and in doses without a T/C. Other doses and runs of a compound stand elsewhere. T/C is the treated group as % of the vehicle group. Some entries give survivors of the animals treated and no T/C: the source holds a T/C of zero for them, seemingly a mark for toxic or unscored doses. Some survivor counts are full or nearly so, which does not show that the dose was tolerated: the source hardly ever lists a survival T/C far under the control, and the zero likely stands for such cases as well. Counts of survivors are from the toxicity check (mostly the fifth day) where no day follows; animals may have died later. Schedule codes are those of the source, read here as Q, the interval in days (D) or hours (H), X, the number of doses. Some doses were run more than once; their values stand side by side, smallest first. For survival time, this PubChem deposit counts one and a half times the control or more as active, and values a quarter to a half above the control carry no call in these data; other NCI protocols may use other cut-offs. Some T/C values carry the count of animals alive at the toxicity check (mostly the fifth day); where none is given, no animal had died by that day.

The subject of this assay is P388 leukemia ip, CD2F1 mice, survival T/C. Nature of the assay: NCI In Vivo Anticancer Drug Screen. Data for tumor model P388 Leukemia (intraperitoneal) in CD2F1 (CDF1) mice. The following applies: T/C endpoint: median survival time, higher T/C = longer survival.
[1] abbreviates: dose: 25.0 mg/kg/injection, schedule: Q01DX009 (ip), vehicle: saline with Tween-80.
The mark [2] stands for this setting: dose: 50.0 mg/kg/injection, schedule: Q01DX005 (ip), vehicle: saline with Tween-80.
Where [3] appears, read: dose: 200.0 mg/kg/injection, schedule: Q01DX005 (ip), vehicle: saline with Tween-80.
The mark [4] stands for this setting: dose: 100.0 mg/kg/injection, schedule: Q01DX009 (ip), vehicle: Klucel (hydroxypropylcellulose) (HPC).
Setting [5] is: dose: 100.0 mg/kg/injection, schedule: Q01DX005 (ip), vehicle: saline with Tween-80.

Take `CC1(C)C=C(C(Br)c2ccccc2)C(=O)c2ccccc21` (stereo unspecified): the T/C (dose: 66.0 mg/kg/injection, schedule: Q01DX009 (ip), vehicle: other) was 128 % of control; the T/C (dose: 100.0 mg/kg/injection, schedule: Q01DX009 (ip), vehicle: other) is 127 and 128 % of control. In addition, the survivor count (dose: 400.0 mg/kg/injection, schedule: Q01DX009 (ip), vehicle: other) is 3 of 6.
For the molecule `CCCCN=C(N)N/N=C/c1c2ccccc2c(C)c2ccccc12`, the survivor count was 1 of 6 (dose: 100.0 mg/kg/injection, schedule: Q04DX002 (ip), vehicle: saline with Tween-80) and 0 of 6 (dose: 200.0 mg/kg/injection, schedule: Q04DX002 (ip), vehicle: saline with Tween-80).
`CCCC(=O)N[C@H]1CCc2cc(OC)c(OC)c(OC)c2-c2ccc(SC)c(=O)cc21`: the T/C is 132 % of control (dose: 0.19 mg/kg/injection, schedule: Q01DX009 (ip), vehicle: water) and 138 % of control (dose: 0.38 mg/kg/injection, schedule: Q01DX009 (ip), vehicle: water). Also, the survivor count (dose: 1.5 mg/kg/injection, schedule: Q01DX009 (ip), vehicle: distilled water + Tween-80) is on record as 6 of 6; the survivor count (dose: 3.0 mg/kg/injection, schedule: Q01DX009 (ip), vehicle: distilled water + Tween-80) was 0 of 6; the survivor count (dose: 3.0 mg/kg/injection, schedule: Q01DX009 (ip), vehicle: water) is recorded as 4 of 6.
Turning to `CS(=O)(=O)OCCN(CCOS(C)(=O)=O)c1cccc(C(F)(F)F)c1`, the T/C reads like this: (dose: 6.25 mg/kg/injection, schedule: Q04DX003 (ip), vehicle: saline with Tween-80) 130 % of control; (dose: 12.5 mg/kg/injection, schedule: Q04DX003 (ip), vehicle: saline with Tween-80) 140 % of control; under setting [1], 145 % of control.
Consider `O=C1c2cccc3cc([N+](=O)[O-])cc(c23)C(=O)N1CCCN(CCO)CCO`, for which the T/C under setting [2] was 125 % of control. Also, the survivor count under setting [3] is 2 of 6 and 4 of 6.
Regarding `CCOc1ccc(/C=C(\C(=O)c2ccccc2)S(=O)(=O)c2ccc(OC)cc2)cc1OC`, under setting [3], the survivor count was 6 of 6.
In the case of `O=C(CBr)c1ccc(C(F)(F)F)cc1`, the survivor count is reported as 4 of 6 (dose: 25.0 mg/kg/injection, schedule: Q01DX009 (ip), vehicle: DMSO); 0 of 6 (dose: 50.0 mg/kg/injection, schedule: Q01DX009 (ip), vehicle: DMSO); 0 of 6 (dose: 100.0 mg/kg/injection, schedule: Q01DX009 (ip), vehicle: DMSO); 0 of 6 (dose: 200.0 mg/kg/injection, schedule: Q01DX009 (ip), vehicle: DMSO).
On to `Cc1cccc(C)c1NC(=S)N(C)C`, for which the survivor count is, setting by setting: under setting [1], 6 of 6; (dose: 50.0 mg/kg/injection, schedule: Q01DX009 (ip), vehicle: saline with Tween-80) 2 of 6; (dose: 100.0 mg/kg/injection, schedule: Q01DX009 (ip), vehicle: saline with Tween-80) 2 of 6.
Turning to `Cc1ccc(C2(c3ccccc3)OC(=O)c3ccccc32)cc1` (stereo unspecified), the survivor count (dose: 50.0 mg/kg/injection, schedule: Q01DX009 (ip), vehicle: saline sonified) is reported as 6 of 6 and the survivor count (dose: 100.0 mg/kg/injection, schedule: Q01DX009 (ip), vehicle: saline sonified) is given as 6 of 6.
With `CSc1nc2c(nc(N)n2C2OC(COC(C)=O)C(OC(C)=O)C(OC(C)=O)C2OC(C)=O)c(=O)n1C` (stereo unspecified), the survivor count (dose: 60.0 mg/kg/injection, schedule: Q01DX005 (ip), vehicle: saline with Tween-80) is reported as 4 of 6.
Take `CNC(=O)OCc1c(COC(=O)NC)c(-c2ccc(S(=O)(=O)c3ccccc3)cc2)n(C)c1C`: the T/C is, setting by setting: (dose: 5.0 mg/kg/injection, schedule: Q01DX009 (ip), vehicle: distilled water + Tween-80) 137 % of control; (dose: 6.25 mg/kg/injection, schedule: Q01DX009 (ip), vehicle: distilled water + Tween-80) 139 % of control; (dose: 10.0 mg/kg/injection, schedule: Q01DX009 (ip), vehicle: distilled water + Tween-80) 136 % of control; (dose: 20.0 mg/kg/injection, schedule: Q01DX009 (ip), vehicle: distilled water + Tween-80) 146 % of control; (dose: 25.0 mg/kg/injection, schedule: Q01DX009 (ip), vehicle: distilled water + Tween-80) 148 % of control. Moreover, the survivor count (dose: 100.0 mg/kg/injection, schedule: Q01DX009 (ip), vehicle: distilled water + Tween-80) is given as 6 of 6.
In the case of `CC(O)COc1ccccc1P(c1ccccc1)c1ccccc1` (stereo unspecified), the T/C (dose: 200.0 mg/kg/injection, schedule: Q01DX005 (ip), vehicle: Klucel (hydroxypropylcellulose) (HPC)) was 125 % of control.
As for `C=C(C)C12CC(C)C34OC(CCCCCCCCC)(OC1C3C1OC1(CO)C(O)C1(O)C(=O)C(C)=CC14)O2` (stereo unspecified), under “dose: 80.0 micrograms/kg/injection, schedule: Q01DX009 (ip), vehicle: saline + alcohol”, the T/C is 131 % of control.
As to `O=C1c2ccccc2C(=O)c2c1ccc1c2OCO1`, the survivor count is reported as 6 of 6 (dose: 40.0 mg/kg/injection, schedule: Q01DX005 (ip), vehicle: Klucel (hydroxypropylcellulose) (HPC)); 6 of 6 (dose: 80.0 mg/kg/injection, schedule: Q01DX005 (ip), vehicle: Klucel (hydroxypropylcellulose) (HPC)); 6 of 6 (dose: 160.0 mg/kg/injection, schedule: Q01DX005 (ip), vehicle: Klucel (hydroxypropylcellulose) (HPC)).
Regarding `CCCCCCCCCCCCN(O)C(=O)c1ccccc1`, under setting [4], the survivor count is 5 of 6.
In the case of `CN(C)CCNc1cccc2sc3ccc(O)cc3c(=O)c12`, the T/C was 125 [5 of 6 alive] and 146 % of control under setting [5]; 136 % of control under setting [3].
On to `N=c1ncn(C2OC(CO)C(O)C2O)c2nc[nH]c12` (stereo unspecified), for which the survivor count (dose: 25.0 mg/kg/injection, schedule: Q01DX009 (ip), vehicle: Klucel (hydroxypropylcellulose) (HPC)) is 6 of 6; the survivor count (dose: 50.0 mg/kg/injection, schedule: Q01DX009 (ip), vehicle: Klucel (hydroxypropylcellulose) (HPC)) was 3 of 6 and 5 of 6; the survivor count under setting [4] was 0 of 6; the survivor count (dose: 200.0 mg/kg/injection, schedule: Q01DX009 (ip), vehicle: Klucel (hydroxypropylcellulose) (HPC)) is 0 of 6; the survivor count (dose: 400.0 mg/kg/injection, schedule: Q01DX009 (ip), vehicle: Klucel (hydroxypropylcellulose) (HPC)) is given as 0 of 6.
Consider `CCOC(=O)/C(C#N)=C1/CCCN1C`, for which, for the setting “dose: 400.0 mg/kg/injection, schedule: Q04DX003 (ip), vehicle: Klucel (hydroxypropylcellulose) (HPC)”, the survivor count was 6 of 6.
In the case of `Cn1ncc2c(NCCc3ccccc3)ncnc21`, the survivor count by setting is: (dose: 200.0 mg/kg/injection, schedule: Q04DX003 (ip), vehicle: saline with Tween-80) 0 of 6; (dose: 400.0 mg/kg/injection, schedule: Q04DX003 (ip), vehicle: saline with Tween-80) 0 of 6.
For `C/C(=N\NC(=S)N1CCN(c2ccccn2)CC1)c1ncccn1`, the T/C (dose: 12.5 mg/kg/injection, schedule: Q01DX005 (ip), vehicle: saline with Tween-80) is 130 % of control. Also, the survivor count was 5 of 6 and 6 of 6 (dose: 25.0 mg/kg/injection, schedule: Q01DX005 (ip), vehicle: saline with Tween-80); 2 of 6 under setting [2]; 0 of 6 under setting [5]; 0 of 6 under setting [3].
Turning to `N#Cc1ncn(Cc2ccccc2)c1N`, the survivor count was 3 of 6 (dose: 120.0 mg/kg/injection, schedule: Q01DX005 (ip), vehicle: saline with Tween-80) and 2 of 6 (dose: 240.0 mg/kg/injection, schedule: Q01DX005 (ip), vehicle: saline with Tween-80).
For the molecule `O=C1OCCC1C(=O)C(O)(C(F)(F)F)C(F)(F)F` (stereo unspecified), the survivor count (dose: 400.0 mg/kg/injection, schedule: Q01DX001 (ip), vehicle: other) is given as 0 of 6.
